Part of at least one peptide drawing is inferred or uncertain, most often the ends. Bridge positions count the residues as written; N and C are the ends. Square brackets hold non-standard residues; d marks the D form. Peptide text beside a SMILES is read from it. dPhe(4-Et) = CCc1ccc(C[C@@H](N)C(=O)O)cc1; Phe(4-Et) = CCc1ccc(C[C@H](N)C(=O)O)cc1; d(hArg) = N=C(N)NCCCC[C@@H](N)C(=O)O
Tests used:
Ratten [1] = assay: antidiuretic activity according to Burn, standard dDAVP; type: in vivo; details: rat; relative to standard [1-Desamino,8-D-Arginin]-Vasopressin (dDAVP)
Source text: (§1) Die biologische Wirksamkeit wurde an Ratten bestimmt: Die uterotonische (agonistische oder inhibitorische) Wirksamkeit wurde nach Holton (Holton, J. Brit. J. Pharmacol. 3, 328, 1948) in der Bearbeitung nach Munich (Endocrinology 66, 451, 1960) bestimmt; die inhibitorische Aktivität wurde ausgedrückt als pA2 (Eggen et al., J. Gen. Physiol. 56, 250, 1970), die pressorische Wirksamkeit wurde an despinalisierten Rattenmännchen nach Krejci et al., (Brit. J. Pharm. Chemother. 30, 497, 1967) bestimmt, die antidiuretische nach Burn (Burn et al., Biol. Stand., Oxford Univ. Press London 1950). Als Standard wurde für den antidiuretischen Test das [1-Desamino,8-D-Arginin]-Vasopressin (dDAVP) verwendet. Eine Übersicht der biologischen Wirksamkeiten ist der Tabelle 1 zu entnehmen.

[2] = tested on: despinalisierten Rattenmännchen; assay: pressor activity on despinalised male rats according to Krejci et al.; type: in vivo, Ratten; details: inhibitory activity expressed as pA2, despinalised male rats
Source text: as §1

Ratten [3] = assay: uterotonic (agonistic or inhibitory) activity according to Holton, modified by Munsick (printed 'Munich'); details: inhibitory activity expressed as pA2, rat
Source text: as §1

SMILES | Antidiuretische Wirksamkeit (% dDAVP) (Ratten [1]) | Pressorische Wirksamkeit, pA₂ [2] | Uterotonische Wirksamkeit, pA₂ (Ratten [3])
CCc1ccc(C[C@@H]2NC(=O)[C@@H](N)CSSC[C@@H](C(=O)N3CCC[C@H]3C(=O)N[C@H](CCCCNC(=N)N)C(=O)NCC(N)=O)NC(=O)[C@H](CC(N)=O)NC(=O)[C@H](CCC(N)=O)NC(=O)[C@H](Cc3ccccc3)NC2=O)cc1 [II, [2-p-Ethyl-L-phenylalanin,8-D-Homoarginin]-Vasopressin] (H-C[Phe(4-Et)]FQNCP[d(hArg)]G-NH2; disulfide 1-6) | < 0,1 % dDAVP | pA₂ = 6,5 | pA₂ = 7,40
CCc1ccc(C[C@H]2NC(=O)[C@@H](N)CSSC[C@@H](C(=O)N3CCC[C@H]3C(=O)N[C@H](CCCCNC(=N)N)C(=O)NCC(N)=O)NC(=O)[C@H](CC(N)=O)NC(=O)[C@H](CCC(N)=O)NC(=O)[C@H](Cc3ccccc3)NC2=O)cc1 [III, [p-Ethyl-D-phenylalanin,8-D-Homoarginin]-Vasopressin] (H-C[dPhe(4-Et)]FQNCP[d(hArg)]G-NH2; disulfide 1-6) | < 0,1 % dDAVP | pA₂ = 6,5 | pA₂ = 8,15

From patent publication EP0412508A1, “Analogues of vasopressin, their preparation and pharmaceutical use” (CESKOSLOVENSKA AKADEMIE VED, priority 1989, dated 1991)
